Test results from US20130178463A1, “ENHANCED TRANSBUCCAL DRUG DELIVERY SYSTEM AND COMPOSITIONS” (Rutgers, The State University of New Jersey, priority 2010, published 2013).
Structures can show the parent of a compound that is named as a salt. Marks after values point to notes of the source that are not given here.

Test: In vitro transdermal permeation of LHCl, NHT and DHCl gels (Franz diffusion cells)
[1] = iontophoresis 0.3 mA for 8 h, listed as lidocaine HCl, mono-hydrochloride, monohydrate
[2] = iontophoresis 0.3 mA for 8 h, mono-hydrochloride, monohydrate

## CCN(CC)CC(=O)Nc1c(C)cccc1C [Lidocaine HCl, 2-(Diethylamino)-2′,6′-acetoxylidide mono-hydrochloride, monohydrate]
Control (untreated passive), 8 h
  Q8: 59.7 ± 43.4 μg/cm^2
Control (untreated passive), 8 h, […] LHCl, 2% NHT or 2% DHCl gel, mono-hydrochloride, monohydrate
  Flux: 7.4 ± 5.8 μg/cm^2*h
Iontophoresis 0.1 mA for 8 h
  Flux: 61.7 ± 20.8^b μg/cm^2*h
  Q8: 494.0 ± 152.0^b μg/cm^2
[1]
  Flux: 375.6 ± 69.44^c μg/cm^2*h
  Q8: 2879.2 ± 531.1^c μg/cm^2
[2]
  Flux: 375.6 ± 69.44^b μg/cm^2*h
  Q8: 2879.2 ± 531.1^b μg/cm^2
